Laboratory results from paper PMC6117920.
Results are given in words; binding and its absence hold for the method and conditions named. For some assays here: In cells and extracts the contact can be indirect. Some entries that bind do so weakly or less than the wild type. One block for each binder: values may come before it.

Tests used:
CD44v6 peptide (human) = molecular target: T1, CD44v6 peptide (human); assay: ELISA; direct ELISA; CD44v3 peptide or CD44v6 peptide coated at 4 μg/ml in PBS; various concentrations of rhCHI3L1 or rhIL-13Rα2 ECD (control BSA) added, 1 h at RT; detected with anti-CHI3L1 or anti-IL-13Rα2 antibody, absorbance at 450 nm; both purified
T1 sequence (peptide): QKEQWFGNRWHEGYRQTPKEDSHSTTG

[1] = molecular target: CD44 (endogenous, gastric cancer cells) (human (endogenous in AGS and MGC803)), P16070; assay: co-IP; lysates of AGS and MGC803 cells in IP buffer (20 mM Tris pH 7.5, 150 mM NaCl, 1% TritonX-100, 1 mM EDTA); control IgG or primary antibody with GammaBind Plus Sepharose, 4°C overnight; western blot; conditions: remark: other sources report otherwise

binding (CD44v6 peptide (human)): no binding
B1: recombinant human IL-13Rα2 ECD (domain or fragment, UniProt Q14627 27-343)
chain: DTEIKVNPPQDFEIVDPGYLGYLYLQWQPPLSLDHFKECTVEYELKYRNIGSETWKTIITKNLHYKDGFDLNKGIEAKIHTLLPWQCTNGSEVQSSWAETTYWISPQGIPETKVQDMDCVYYNWQYLLCSWKPGIGVLLDTNYNLFYWYEGLDHALQCVDYIKADGQNIGCRFPYLEASDYKDFYICVNGSSENKPIRSSYFTFQLQNIVKPLPPVYLTFTRESSCEIKLKWSIPLGPIPARCFDYEIEIREDDTTLVTATVENETYTLKTTNETRQLCFVVRSKVNIYCSDDGIWSEWSDKQCWEGEDLSKKTLLR

binding [1]: binds
B2: IL-13Rα2 (endogenous, gastric cancer cells), Q14627 27-380 (receptor)
chain: DTEIKVNPPQDFEIVDPGYLGYLYLQWQPPLSLDHFKECTVEYELKYRNIGSETWKTIITKNLHYKDGFDLNKGIEAKIHTLLPWQCTNGSEVQSSWAETTYWISPQGIPETKVQDMDCVYYNWQYLLCSWKPGIGVLLDTNYNLFYWYEGLDHALQCVDYIKADGQNIGCRFPYLEASDYKDFYICVNGSSENKPIRSSYFTFQLQNIVKPLPPVYLTFTRESSCEIKLKWSIPLGPIPARCFDYEIEIREDDTTLVTATVENETYTLKTTNETRQLCFVVRSKVNIYCSDDGIWSEWSDKQCWEGEDLSKKTLLRFWLPFGFILILVIFVTGLLLRKPNTYPKMIPEFFCDT
